Data as given in PubChem BioAssay AID1259425 (University of Nebraska Medical Center, 2018)

- Test: 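Compare each knockdown with KSR1 silencing using changes in marker transcripts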 (primary screen)
- Cells: HCT116 human colon cancer cells
- Reagent: siRNA pool against human genes, 50 nM siRNA
- Read-out: 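After 50 nM siRNA pool, branched-DNA assay measures six marker transcripts per well, minus blank, normalised to the geometric mean of two housekeeping transcripts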
- Scale: BNIP3L mRNA: higher = more BNIP3L transcript after knockdown; NDRG1 mRNA: higher = more NDRG1 transcript after knockdown
Shown is an unselected part of about 14,000 deposited reagents. Not all columns of the deposit are shown. The record does not give: the time to read-out.

| target gene | BNIP3L mRNA, set 1 | NDRG1 mRNA, set 1 |
| --- | --- | --- |
| MRPL42 (mitochondrial ribosomal protein L42) | 0.122 | 0.44 |
| ESR2 (estrogen receptor 2) | 0.103 | 0.376 |
| MBTD1 (mbt domain containing 1) | 0.101 | 0.116 |
| MFF (mitochondrial fission factor) | 0.113 | 0.304 |
| EDN2 (endothelin 2) | 0.143 | 0.588 |
| EGFL6 (EGF like domain multiple 6) | 0.241 | 0.192 |
| HNRNPA1 (heterogeneous nuclear ribonucleoprotein A1) | 0.179 | 1.18 |
| GHITM (growth hormone inducible transmembrane protein) | 0.0952 | 0.221 |
| UBE3A (ubiquitin protein ligase E3A) | 0.0403 | 0.0672 |
| DNAJC5 (DnaJ heat shock protein family (Hsp40) member C5) | 0.0975 | 0.204 |
| B3GNT2 | 0.0804 | 0.324 |
| RBM25 (RNA binding motif protein 25) | 0.251 | 1.44 |
| ZBTB21 (zinc finger and BTB domain containing 21) | 0.0754 | 0.234 |
| HMGB1P10 (high mobility group box 1 pseudogene 10) | 0.166 | 0.105 |
| ARB2A (ARB2 cotranscriptional regulator A) | 0.231 | 0.163 |
| GPR141 (G protein-coupled receptor 141) | 0.134 | 0.101 |
| CRYBG1 (crystallin beta-gamma domain containing 1) | 0.0768 | 0.0585 |
| BUD13 (BUD13 spliceosome associated protein) | 0.0612 | 0.113 |
| PDHA1 (pyruvate dehydrogenase E1 subunit alpha 1) | 0.0496 | 0.244 |
| C2CD2L (C2CD2 like) | 0.0738 | 0.346 |
| PIP4K2B (phosphatidylinositol-5-phosphate 4-kinase type 2 beta) | 0.062 | 0.151 |

As entered above.
Entry of GPR141 (G protein-coupled receptor 141) under “BNIP3L mRNA, set 1”: 0.134
HMGB1P10 (high mobility group box 1 pseudogene 10), NDRG1 mRNA, set 1 → 0.105
For “NDRG1 mRNA, set 1”, HNRNPA1 (heterogeneous nuclear ribonucleoprotein A1) has 1.18
DNAJC5 (DnaJ heat shock protein family (Hsp40) member C5), BNIP3L mRNA, set 1: 0.0975
For “NDRG1 mRNA, set 1”, ESR2 (estrogen receptor 2) has 0.376
Result of EDN2 (endothelin 2) under “NDRG1 mRNA, set 1”: 0.588

The listing continues:
| target gene | BNIP3L mRNA, set 1 | NDRG1 mRNA, set 1 |
| --- | --- | --- |
| TRIM10 (tripartite motif containing 10) | 0.138 | 0.222 |
| NUCB1 (nucleobindin 1) | 0.122 | 0.226 |
| FTL (ferritin light chain) | 0.108 | 0.334 |
| SLITRK6 (SLIT and NTRK like family member 6) | 0.259 | 0.386 |
| USP38 (ubiquitin specific peptidase 38) | 0.0461 | 0.0725 |
| UBASH3A (ubiquitin associated and SH3 domain containing A) | 0.0968 | 0.998 |
| KCNK2 (potassium two pore domain channel subfamily K member 2) | 0.112 | 0.175 |
| APOL1 (apolipoprotein L1) | 0.169 | 0.333 |
| CDH17 (cadherin 17) | 0.085 | 0.118 |
| NMUR1 (neuromedin U receptor 1) | 0.171 | 0.225 |
| GANAB (glucosidase II alpha subunit) | 0.0929 | 0.337 |
| NLGN2 (neuroligin 2) | 0.131 | 0.482 |
| RTCA (RNA 3'-terminal phosphate cyclase) | 0.0658 | 0.148 |
| DPH1 (diphthamide biosynthesis 1) | 0.122 | 0.175 |
| RFNG (RFNG O-fucosylpeptide 3-beta-N-acetylglucosaminyltransferase) | 0.123 | 0.155 |
| ACSM5 (acyl-CoA synthetase medium chain family member 5) | 0.262 | 0.449 |
| IER2 (immediate early response 2) | 0.141 | 0.209 |
| ARL6IP1 (ARL6 interacting reticulophagy regulator 1) | 0.105 | 0.152 |
| GRB7 (growth factor receptor bound protein 7) | 0.182 | 0.223 |
| CCL1 (C-C motif chemokine ligand 1) | 0.134 | 0.255 |
| SUSD5 (sushi domain containing 5) | 0.0811 | 0.406 |
| AAGAB (alpha and gamma adaptin binding protein) | 0.202 | 0.252 |
| BAIAP2 (BAR/IMD domain containing adaptor protein 2) | 0.0656 | 0.153 |
| DHRS11 (dehydrogenase/reductase 11) | 0.0794 | 0.166 |
| REG4 (regenerating family member 4) | 0.153 | 0.66 |
| ABCB10 (ATP binding cassette subfamily B member 10) | 0.147 | 0.349 |
| DDX27 (DEAD-box helicase 27) | 0.227 | 0.557 |
| RGL4 (ral guanine nucleotide dissociation stimulator like 4) | 0.129 | 0.237 |
| POLE (DNA polymerase epsilon, catalytic subunit) | 0.145 | 0.0717 |
